Results as given in the supplement of paper PMC10849652.
Some of the results follow.

By UniProt entry, the sequences of proteins in these tests, tags left out. Where a name states a change or a piece, a line headed by the entry shows the natural chain unless it says otherwise.
UniProt Q9NSK7: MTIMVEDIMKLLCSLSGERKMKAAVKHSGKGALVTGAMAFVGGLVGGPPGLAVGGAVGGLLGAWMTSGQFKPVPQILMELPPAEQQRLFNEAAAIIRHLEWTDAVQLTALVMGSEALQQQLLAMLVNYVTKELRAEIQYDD
UniProt Q14444, whole entry, looked up: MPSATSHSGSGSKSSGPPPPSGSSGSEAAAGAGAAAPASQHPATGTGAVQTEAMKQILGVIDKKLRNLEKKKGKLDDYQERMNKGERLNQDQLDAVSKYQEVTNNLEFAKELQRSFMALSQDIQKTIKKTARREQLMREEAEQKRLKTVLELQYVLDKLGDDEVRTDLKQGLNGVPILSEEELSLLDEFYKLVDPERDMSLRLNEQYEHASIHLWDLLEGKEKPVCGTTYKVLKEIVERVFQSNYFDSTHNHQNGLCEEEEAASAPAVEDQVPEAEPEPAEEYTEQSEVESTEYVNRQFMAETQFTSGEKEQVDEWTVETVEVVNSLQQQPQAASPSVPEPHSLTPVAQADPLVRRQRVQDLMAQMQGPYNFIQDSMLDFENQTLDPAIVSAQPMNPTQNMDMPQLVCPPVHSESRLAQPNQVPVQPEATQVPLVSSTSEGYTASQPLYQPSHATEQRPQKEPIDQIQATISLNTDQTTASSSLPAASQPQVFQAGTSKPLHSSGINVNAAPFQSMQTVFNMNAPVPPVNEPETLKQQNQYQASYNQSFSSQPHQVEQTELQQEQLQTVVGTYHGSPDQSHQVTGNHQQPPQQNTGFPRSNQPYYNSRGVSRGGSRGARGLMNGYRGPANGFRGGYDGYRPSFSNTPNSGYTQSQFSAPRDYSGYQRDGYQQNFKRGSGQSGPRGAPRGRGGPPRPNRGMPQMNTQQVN
UniProt Q9Y2V0: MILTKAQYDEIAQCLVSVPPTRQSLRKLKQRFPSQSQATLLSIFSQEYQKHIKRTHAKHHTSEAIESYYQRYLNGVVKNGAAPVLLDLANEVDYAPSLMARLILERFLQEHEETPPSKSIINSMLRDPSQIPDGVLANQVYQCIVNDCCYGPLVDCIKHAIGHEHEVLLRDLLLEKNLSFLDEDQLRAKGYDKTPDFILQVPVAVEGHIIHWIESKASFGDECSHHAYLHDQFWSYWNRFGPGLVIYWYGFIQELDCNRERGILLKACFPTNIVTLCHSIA
UniProt Q9BVC5: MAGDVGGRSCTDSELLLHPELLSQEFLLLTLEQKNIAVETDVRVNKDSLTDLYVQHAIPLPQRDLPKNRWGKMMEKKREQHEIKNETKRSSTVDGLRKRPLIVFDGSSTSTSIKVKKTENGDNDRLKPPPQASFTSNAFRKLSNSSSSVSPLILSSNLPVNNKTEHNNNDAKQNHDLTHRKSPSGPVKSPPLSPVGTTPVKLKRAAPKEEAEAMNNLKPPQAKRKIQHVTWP
UniProt P17655: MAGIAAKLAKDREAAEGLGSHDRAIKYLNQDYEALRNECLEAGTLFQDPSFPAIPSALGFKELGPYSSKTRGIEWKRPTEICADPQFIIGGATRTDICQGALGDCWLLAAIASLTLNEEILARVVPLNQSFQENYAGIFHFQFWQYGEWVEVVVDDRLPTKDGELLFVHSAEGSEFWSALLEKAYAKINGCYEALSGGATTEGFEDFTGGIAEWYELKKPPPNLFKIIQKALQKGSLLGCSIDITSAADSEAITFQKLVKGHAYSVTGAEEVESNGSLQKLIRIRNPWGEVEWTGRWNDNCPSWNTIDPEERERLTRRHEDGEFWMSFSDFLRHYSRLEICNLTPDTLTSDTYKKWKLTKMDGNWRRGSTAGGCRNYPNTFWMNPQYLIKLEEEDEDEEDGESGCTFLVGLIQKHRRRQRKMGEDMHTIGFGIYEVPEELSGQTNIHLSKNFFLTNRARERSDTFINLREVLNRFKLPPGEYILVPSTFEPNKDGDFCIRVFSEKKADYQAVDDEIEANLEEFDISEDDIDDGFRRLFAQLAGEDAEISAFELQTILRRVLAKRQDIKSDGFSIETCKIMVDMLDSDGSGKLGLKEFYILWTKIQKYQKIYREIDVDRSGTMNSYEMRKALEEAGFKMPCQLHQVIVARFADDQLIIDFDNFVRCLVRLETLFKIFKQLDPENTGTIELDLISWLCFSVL
UniProt Q6ZSJ8: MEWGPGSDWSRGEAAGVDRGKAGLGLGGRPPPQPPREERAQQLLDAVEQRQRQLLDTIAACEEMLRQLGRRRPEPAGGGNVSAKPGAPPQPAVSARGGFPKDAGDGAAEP
UniProt Q8N5S9: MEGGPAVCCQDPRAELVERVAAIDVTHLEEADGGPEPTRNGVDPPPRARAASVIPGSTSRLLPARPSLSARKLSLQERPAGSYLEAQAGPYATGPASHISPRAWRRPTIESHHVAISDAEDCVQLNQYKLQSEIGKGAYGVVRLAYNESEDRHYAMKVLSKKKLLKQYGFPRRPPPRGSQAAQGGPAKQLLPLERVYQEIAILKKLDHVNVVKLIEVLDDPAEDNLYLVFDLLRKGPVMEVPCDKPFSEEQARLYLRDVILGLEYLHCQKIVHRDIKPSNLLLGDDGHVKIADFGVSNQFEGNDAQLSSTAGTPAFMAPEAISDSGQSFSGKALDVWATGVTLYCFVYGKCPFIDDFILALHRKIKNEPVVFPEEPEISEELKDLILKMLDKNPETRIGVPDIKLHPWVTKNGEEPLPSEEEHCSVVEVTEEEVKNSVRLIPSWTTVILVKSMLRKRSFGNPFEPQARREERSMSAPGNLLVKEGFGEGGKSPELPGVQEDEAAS
UniProt Q9BX69: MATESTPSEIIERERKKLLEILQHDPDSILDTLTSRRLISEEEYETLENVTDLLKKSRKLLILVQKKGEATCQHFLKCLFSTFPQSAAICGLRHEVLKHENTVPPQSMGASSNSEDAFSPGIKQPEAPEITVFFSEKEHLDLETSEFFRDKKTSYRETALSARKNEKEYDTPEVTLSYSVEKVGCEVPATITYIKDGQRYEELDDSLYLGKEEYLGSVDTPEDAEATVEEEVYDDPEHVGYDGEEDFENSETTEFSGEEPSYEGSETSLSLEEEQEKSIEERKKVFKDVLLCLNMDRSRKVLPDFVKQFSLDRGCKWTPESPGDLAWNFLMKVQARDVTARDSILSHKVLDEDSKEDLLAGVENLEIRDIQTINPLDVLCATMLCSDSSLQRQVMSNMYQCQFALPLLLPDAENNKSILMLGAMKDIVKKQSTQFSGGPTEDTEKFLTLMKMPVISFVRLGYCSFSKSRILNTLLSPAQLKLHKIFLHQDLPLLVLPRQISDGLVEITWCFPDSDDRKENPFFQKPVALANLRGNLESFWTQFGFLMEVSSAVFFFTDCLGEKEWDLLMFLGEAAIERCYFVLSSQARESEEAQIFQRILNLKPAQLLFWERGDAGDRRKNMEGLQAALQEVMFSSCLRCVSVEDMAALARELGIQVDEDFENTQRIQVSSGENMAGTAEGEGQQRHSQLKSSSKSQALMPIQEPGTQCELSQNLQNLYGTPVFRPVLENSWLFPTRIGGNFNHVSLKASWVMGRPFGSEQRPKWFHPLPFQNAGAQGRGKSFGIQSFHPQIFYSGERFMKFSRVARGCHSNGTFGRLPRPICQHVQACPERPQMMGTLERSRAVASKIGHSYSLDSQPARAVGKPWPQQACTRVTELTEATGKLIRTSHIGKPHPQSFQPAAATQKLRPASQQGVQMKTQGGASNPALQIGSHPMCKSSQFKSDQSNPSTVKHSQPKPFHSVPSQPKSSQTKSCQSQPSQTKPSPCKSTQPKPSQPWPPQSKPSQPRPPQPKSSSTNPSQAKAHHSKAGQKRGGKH
UniProt Q8N1A6: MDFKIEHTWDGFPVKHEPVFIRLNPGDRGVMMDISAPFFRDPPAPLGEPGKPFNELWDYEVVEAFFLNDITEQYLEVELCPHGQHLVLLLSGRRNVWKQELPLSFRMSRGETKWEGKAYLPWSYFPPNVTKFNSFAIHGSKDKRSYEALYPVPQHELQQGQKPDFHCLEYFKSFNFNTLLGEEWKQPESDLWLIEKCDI
UniProt Q6P1S2: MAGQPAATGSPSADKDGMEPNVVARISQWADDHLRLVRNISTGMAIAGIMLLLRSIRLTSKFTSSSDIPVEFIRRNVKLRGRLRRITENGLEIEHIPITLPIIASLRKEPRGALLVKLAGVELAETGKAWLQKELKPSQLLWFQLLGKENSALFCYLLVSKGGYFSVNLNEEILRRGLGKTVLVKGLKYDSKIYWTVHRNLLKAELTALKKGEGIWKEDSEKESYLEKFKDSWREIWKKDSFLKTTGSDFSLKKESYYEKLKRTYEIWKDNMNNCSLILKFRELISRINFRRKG
UniProt P27708: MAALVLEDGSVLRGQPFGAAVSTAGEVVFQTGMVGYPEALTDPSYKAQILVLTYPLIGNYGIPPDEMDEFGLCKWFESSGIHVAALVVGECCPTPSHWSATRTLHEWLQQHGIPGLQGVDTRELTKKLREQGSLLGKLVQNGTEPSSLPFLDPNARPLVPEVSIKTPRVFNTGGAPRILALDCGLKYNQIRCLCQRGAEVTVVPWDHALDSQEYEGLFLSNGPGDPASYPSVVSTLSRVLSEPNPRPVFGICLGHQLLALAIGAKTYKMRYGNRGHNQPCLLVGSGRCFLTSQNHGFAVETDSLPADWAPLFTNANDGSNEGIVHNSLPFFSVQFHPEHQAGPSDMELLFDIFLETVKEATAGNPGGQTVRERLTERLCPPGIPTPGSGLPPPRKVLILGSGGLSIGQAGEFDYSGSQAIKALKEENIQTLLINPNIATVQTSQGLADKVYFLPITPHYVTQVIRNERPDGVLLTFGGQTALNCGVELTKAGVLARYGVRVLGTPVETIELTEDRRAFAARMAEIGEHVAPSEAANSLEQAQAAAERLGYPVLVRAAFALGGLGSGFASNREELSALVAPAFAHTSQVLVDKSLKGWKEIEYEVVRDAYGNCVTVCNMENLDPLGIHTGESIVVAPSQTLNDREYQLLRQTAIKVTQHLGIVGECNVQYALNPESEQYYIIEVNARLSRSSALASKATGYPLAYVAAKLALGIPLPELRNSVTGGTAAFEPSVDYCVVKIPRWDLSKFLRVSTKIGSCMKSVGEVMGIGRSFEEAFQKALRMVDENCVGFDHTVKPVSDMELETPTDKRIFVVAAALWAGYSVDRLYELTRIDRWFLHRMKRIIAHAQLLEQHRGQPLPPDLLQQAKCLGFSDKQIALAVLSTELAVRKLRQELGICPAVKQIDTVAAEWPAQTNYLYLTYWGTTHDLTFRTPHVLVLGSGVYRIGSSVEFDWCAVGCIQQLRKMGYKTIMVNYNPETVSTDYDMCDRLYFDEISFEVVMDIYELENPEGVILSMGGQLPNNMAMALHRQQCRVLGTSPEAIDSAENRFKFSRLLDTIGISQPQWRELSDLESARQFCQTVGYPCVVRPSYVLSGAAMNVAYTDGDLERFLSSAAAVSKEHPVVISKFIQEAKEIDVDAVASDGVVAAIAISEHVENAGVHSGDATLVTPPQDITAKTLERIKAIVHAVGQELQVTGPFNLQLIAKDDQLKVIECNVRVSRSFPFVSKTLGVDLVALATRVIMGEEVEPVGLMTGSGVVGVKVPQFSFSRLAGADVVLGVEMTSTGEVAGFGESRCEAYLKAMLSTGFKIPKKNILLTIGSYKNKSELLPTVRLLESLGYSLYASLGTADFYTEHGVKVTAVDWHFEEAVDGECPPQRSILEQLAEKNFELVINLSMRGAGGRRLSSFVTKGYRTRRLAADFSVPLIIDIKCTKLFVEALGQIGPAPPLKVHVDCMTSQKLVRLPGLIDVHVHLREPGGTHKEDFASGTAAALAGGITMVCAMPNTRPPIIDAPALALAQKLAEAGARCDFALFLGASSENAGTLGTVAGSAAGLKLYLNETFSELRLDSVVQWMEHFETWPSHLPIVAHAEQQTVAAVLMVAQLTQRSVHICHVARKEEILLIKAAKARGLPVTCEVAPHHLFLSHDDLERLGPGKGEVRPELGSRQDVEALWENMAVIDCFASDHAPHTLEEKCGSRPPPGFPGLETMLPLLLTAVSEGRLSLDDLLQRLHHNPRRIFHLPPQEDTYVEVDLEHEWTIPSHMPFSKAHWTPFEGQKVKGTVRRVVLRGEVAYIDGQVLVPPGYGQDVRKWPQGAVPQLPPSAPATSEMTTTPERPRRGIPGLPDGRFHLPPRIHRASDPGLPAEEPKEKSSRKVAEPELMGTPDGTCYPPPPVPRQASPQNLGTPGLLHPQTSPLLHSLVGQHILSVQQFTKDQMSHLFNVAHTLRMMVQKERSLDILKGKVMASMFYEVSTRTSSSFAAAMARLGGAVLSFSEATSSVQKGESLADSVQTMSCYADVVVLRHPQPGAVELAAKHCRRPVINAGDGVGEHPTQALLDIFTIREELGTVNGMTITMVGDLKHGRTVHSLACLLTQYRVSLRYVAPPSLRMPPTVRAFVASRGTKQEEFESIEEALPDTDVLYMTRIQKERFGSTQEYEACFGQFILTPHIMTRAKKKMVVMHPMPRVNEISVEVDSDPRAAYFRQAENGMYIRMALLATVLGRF
UniProt P41223: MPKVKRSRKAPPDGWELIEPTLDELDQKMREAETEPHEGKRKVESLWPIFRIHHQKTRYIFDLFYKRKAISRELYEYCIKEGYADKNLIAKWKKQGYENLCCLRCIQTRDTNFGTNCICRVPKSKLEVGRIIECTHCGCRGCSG

Experiments:
Assay in all cases: log2 fold change, soluble protein after heating vs DMSO (PISA); higher = thermal stabilisation; K562 lysate, 10 uM; active = over 0.2 and 3.5 SD of the protein, either way, in both replicates (recomputed)
nilotinib = compound: Cc1cn(-c2cc(NC(=O)c3ccc(C)c(Nc4nccc(-c5cccnc5)n4)c3)cc(C(F)(F)F)c2)cn1 [nilotinib]
How it was run: (§1)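 Log-two fold change in thermal stability relative to solvent controls is reported from duplicates. For each sample, crude K562 extract from dounce-homogenised pellets in PBS pH 7.4 with 1 mM MgCl2, at 1 mg/mL protein, was treated with 10 μM compound for 30 min. Aliquots heated for 3 min across 48°C-58°C were pooled, brought to 0.5% NP-40 at 4°C and cleared at 21,000xg for 90 min. The supernatant was quantified by TMTpro 16plex LC-MS/MS with channel sums equalised.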

[1] = compound: Cc1nc(Nc2n[nH]c3c2CN(C(=O)N[C@H](CN(C)C)c2ccccc2)C3(C)C)c2sccc2n1
How it was run: as §1

dasatinib = compound: Cc1nc(Nc2ncc(C(=O)Nc3c(C)cccc3Cl)s2)cc(N2CCN(CCO)CC2)n1 [dasatinib]
How it was run: as §1

[2] = compound: Cc1ncc(-c2ccnc(Nc3ccc(S(C)(=O)=O)cc3)n2)n1C(C)C
How it was run: as §1

[3] = compound: Cn1cc(-c2ccc3c(c2)CCN3C(=O)Cc2cccc(C(F)(F)F)c2)c2c(N)ncnc21
How it was run: as §1

quisinostat = compound: Cn1cc(CNCC2CCN(c3ncc(C(=O)NO)cn3)CC2)c2ccccc21 [quisinostat]
How it was run: as §1

tipifarnib = compound: Cn1cncc1[C@@](N)(c1ccc(Cl)cc1)c1ccc2c(c1)c(-c1cccc(Cl)c1)cc(=O)n2C [tipifarnib]
How it was run: as §1

[4] = compound: NC(=O)Nc1cc(-c2cccc(F)c2)sc1C(=O)N[C@H]1CCCNC1
How it was run: as §1

[5] = compound: NC(=O)c1cnc(N[C@@H]2CCCC[C@@H]2N)nc1Nc1cccc(-n2nccn2)c1
How it was run: as §1

[6] = compound: NC1(c2ccc(-c3nc4ccn5c(=O)[nH]nc5c4cc3-c3ccccc3)cc2)CCC1
How it was run: as §1

Measured: log2 fold change

C3orf38 (UniProt Q5JPI3)
inactive: nilotinib -0.013 | [1] 0.058 | dasatinib -0.011 | [2] -0.004 | [3] -0.069 | quisinostat -0.078 | tipifarnib 0.049 | [4] 0.053 | [5] -0.041 | [6] 0.017

C2orf76 (UniProt Q3KRA6)
inactive: nilotinib 0.002 | [1] -0.045 | dasatinib 0.034 | [2] -0.003 | [3] 0.037 | quisinostat 0.012 | tipifarnib 0.092 | [4] 0.004 | [5] 0.048 | [6] 0.079

C19orf12 (UniProt Q9NSK7)
inactive: nilotinib 0.064 | [1] 0.079 | dasatinib 0.103 | [2] 0.064 | [3] -0.065 | quisinostat 0.095 | tipifarnib 0.031 | [4] 0.024 | [5] -0.054

CAPRIN1 (UniProt Q14444)
inactive: nilotinib -0.012 | [1] -0.008 | dasatinib 0.025 | [2] -0.002 | [3] -0.019 | quisinostat 0.048 | tipifarnib 0.006 | [4] -0.002 | [5] -0.023 | [6] 0.036

CANT1 (UniProt Q8WVQ1)
inactive: nilotinib -0.001 | [1] -0.022 | dasatinib -0.019 | [2] -0.002 | [3] 0.016 | quisinostat 0.075 | tipifarnib -0.037 | [4] -0.024 | [5] -0.002 | [6] 0.021

C15orf41 (UniProt Q9Y2V0)
inactive: nilotinib -0.041 | [1] 0 | dasatinib 0.09 | [2] 0.038 | [3] -0.036 | quisinostat -0.023 | tipifarnib -0.014 | [4] 0.076 | [5] 0.024 | [6] 0

C2orf49 (UniProt Q9BVC5)
inactive: nilotinib -0.021 | [1] -0.024 | dasatinib 0.023 | [2] -0.022 | [3] 0.025 | quisinostat -0.039 | tipifarnib 0.009 | [4] -0.01 | [5] -0.024 | [6] -0.014

CAPN2 (UniProt P17655)
inactive: nilotinib 0.01 | [1] 0.027 | dasatinib 0.01 | [2] 0.017 | [3] 0.008 | quisinostat 0.03 | tipifarnib -0.019 | [4] -0.022 | [5] 0.008 | [6] -0.026

C1orf122 (UniProt Q6ZSJ8)
inactive: nilotinib 0.058 | [1] -0.018 | dasatinib -0.033 | [2] 0.065 | [3] -0.097 | quisinostat -0.068 | tipifarnib 0.124 | [4] -0.008 | [5] 0.002 | [6] 0.022

C11orf98 (UniProt E9PRG8)
inactive: nilotinib -0.017 | [1] 0.032 | dasatinib -0.007 | [2] 0.007 | [3] 0.011 | quisinostat -0.013 | tipifarnib 0.008 | [4] 0.02 | [5] 0 | [6] -0.01

BUD23 isoform 3 (UniProt O43709)
inactive: nilotinib -0.003 | [1] -0.008 | dasatinib 0.035 | [2] -0.084 | [3] 0.035 | quisinostat 0.009 | tipifarnib 0.015 | [4] 0.035 | [5] -0.076 | [6] -0.017

CAMKK1 isoform 2 (UniProt Q8N5S9)
inactive: nilotinib -0.013 | [1] 0.144 | dasatinib 0.05 | [2] 0.064 | [3] 0.189 | quisinostat -0.072 | tipifarnib -0.064 | [4] 0.047 | [5] -0.002 | [6] 0.007

C5orf51 (UniProt A6NDU8)
inactive: nilotinib -0.061 | [1] 0.006 | dasatinib -0.029 | [2] 0.017 | [3] 0.02 | quisinostat -0.066 | tipifarnib 0.026 | [4] 0.1 | [5] 0.002 | [6] -0.023

CARD6 (UniProt Q9BX69)
inactive: nilotinib 0.067 | [1] 0.162 | dasatinib 0.05 | [2] 0.165 | [3] 0.006 | quisinostat -0.167 | tipifarnib -0.03 | [4] 0.067

CAND1 (UniProt Q86VP6)
inactive: nilotinib 0.029 | [1] -0.005 | dasatinib 0.012 | [2] 0.007 | [3] 0 | quisinostat -0.005 | tipifarnib 0.001 | [4] -0.013 | [5] -0.006 | [6] 0

C9orf40 (UniProt Q8IXQ3)
inactive: nilotinib -0.091 | [1] 0.177 | dasatinib -0.009 | [2] 0.107 | [3] -0.045 | quisinostat 0.003 | tipifarnib -0.079 | [4] 0.023 | [5] 0.011 | [6] -0.07

CA8 (UniProt P35219)
inactive: nilotinib 0.01 | [1] -0.072 | dasatinib 0.005 | [2] -0.038 | [3] -0.009 | quisinostat -0.035 | tipifarnib 0.006 | [4] 0.028 | [5] -0.001 | [6] -0.007

C1orf50 (UniProt Q9BV19)
inactive: nilotinib 0.05 | [1] -0.065 | dasatinib 0.005 | [2] 0.125 | [3] -0.049 | quisinostat 0.167 | tipifarnib 0.052 | [4] -0.02 | [5] -0.026 | [6] 0.024

C1QBP (UniProt Q07021)
inactive: nilotinib -0.005 | [1] 0.007 | dasatinib 0.012 | [2] 0.018 | [3] -0.012 | quisinostat -0.004 | tipifarnib -0.012 | [4] 0.001 | [5] -0.02 | [6] -0.014

C2CD5 isoform 3 (UniProt Q86YS7)
inactive: nilotinib -0.036 | [1] 0.074 | dasatinib -0.053 | [2] 0.046 | [3] 0.01 | quisinostat 0.013 | tipifarnib -0.053 | [4] 0.024 | [5] 0.01 | [6] -0.044

CAMKK2 (UniProt Q96RR4)
inactive: nilotinib -0.038 | [1] 0.176 | dasatinib 0.031 | [2] 0.028 | [3] 0.023 | quisinostat -0.01 | tipifarnib -0.037 | [4] 0.1 | [5] -0.046 | [6] 0

C4orf33 (UniProt Q8N1A6)
inactive: nilotinib -0.024 | [1] -0.032 | dasatinib -0.078 | [2] 0.075 | [3] 0.011 | quisinostat -0.037 | tipifarnib 0.057 | [4] 0.041 | [5] 0.014 | [6] -0.028

Copied from the entries so far (five entries):
C1orf50 (UniProt Q9BV19)
inactive: nilotinib 0.05 | [1] -0.065 | dasatinib 0.005 | [2] 0.125 | [3] -0.049 | quisinostat 0.167 | tipifarnib 0.052 | [4] -0.02 | [5] -0.026 | [6] 0.024

C1QBP (UniProt Q07021)
inactive: nilotinib -0.005 | [1] 0.007 | dasatinib 0.012 | [2] 0.018 | [3] -0.012 | quisinostat -0.004 | tipifarnib -0.012 | [4] 0.001 | [5] -0.02 | [6] -0.014

C2CD5 isoform 3 (UniProt Q86YS7)
inactive: nilotinib -0.036 | [1] 0.074 | dasatinib -0.053 | [2] 0.046 | [3] 0.01 | quisinostat 0.013 | tipifarnib -0.053 | [4] 0.024 | [5] 0.01 | [6] -0.044

CAMKK2 (UniProt Q96RR4)
inactive: nilotinib -0.038 | [1] 0.176 | dasatinib 0.031 | [2] 0.028 | [3] 0.023 | quisinostat -0.01 | tipifarnib -0.037 | [4] 0.1 | [5] -0.046 | [6] 0

C4orf33 (UniProt Q8N1A6)
inactive: nilotinib -0.024 | [1] -0.032 | dasatinib -0.078 | [2] 0.075 | [3] 0.011 | quisinostat -0.037 | tipifarnib 0.057 | [4] 0.041 | [5] 0.014 | [6] -0.028

(cont.)

CALCOCO1 (UniProt Q9P1Z2)
inactive: nilotinib -0.054 | [1] 0.031 | dasatinib -0.012 | [2] -0.041 | [3] 0.034 | quisinostat -0.042 | tipifarnib 0.046 | [4] 0.02 | [5] -0.041 | [6] -0.009

C11orf68 isoform 3 (UniProt Q9H3H3)
inactive: nilotinib -0.029 | [1] -0.014 | dasatinib -0.009 | [2] -0.019 | [3] -0.024 | quisinostat 0.014 | tipifarnib -0.036 | [4] -0.027 | [5] -0.033 | [6] -0.029

CAND2 (UniProt O75155)
inactive: nilotinib -0.001 | [1] -0.007 | dasatinib -0.01 | [2] 0.001 | [3] -0.005 | quisinostat 0.003 | tipifarnib 0.004 | [4] -0.007 | [5] -0.008 | [6] 0.008

C3orf33 (UniProt Q6P1S2)
inactive: nilotinib -0.105 | [1] -0.15 | dasatinib -0.013 | [2] 0.009 | [3] -0.072 | quisinostat -0.14 | tipifarnib 0.007 | [4] 0.274 | [5] 0.094 | [6] 0.123

C18orf25 (UniProt Q96B23)
inactive: nilotinib 0.139 | [1] -0.014 | dasatinib -0.022 | [2] -0.018 | [3] 0.082 | quisinostat -0.007 | tipifarnib 0.003 | [4] 0 | [5] 0.011 | [6] -0.008

C8orf33 isoform 2 (UniProt Q9H7E9)
inactive: nilotinib -0.018 | [1] 0.004 | dasatinib 0.086 | [2] -0.019 | [3] -0.048 | quisinostat 0.004 | tipifarnib 0.066 | [4] -0.071 | [5] -0.036 | [6] 0.103

CAD (UniProt P27708)
inactive: nilotinib 0.004 | [1] 0.013 | dasatinib -0.094 | [2] -0.001 | [3] 0.038 | quisinostat -0.02 | tipifarnib -0.005 | [4] 0.023 | [5] -0.006 | [6] 0.004

BUD31 (UniProt P41223)
inactive: nilotinib 0.014 | [1] 0 | dasatinib 0.005 | [2] -0.037 | [3] -0.032 | quisinostat 0.07 | tipifarnib 0.03 | [4] -0.013 | [5] -0.015 | [6] 0.047
